## Library screen at single concentrations

From ChEMBL document CHEMBL3988442, “University of Dundee, Small-Polar-MMV Screening Library” (2021).

Each number is a percent effect as filed.
The record does not define 0% and 100%; most values in the screen are far below 50% and negative numbers occur (in some assays of this library far below -100).
The compounds are a random part of those screened.
Two or more numbers in one place are separate tests of the same structure; such repeats can differ widely.

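Phenotypic screen: M. tuberculosis growth, cholesterol and DPPC medium, 4 days; the read-out is not stated. Compounds at 50 µM. The record gives no direction; compounds that gave an IC50 in retests scored well above the rest, so higher reads as more growth inhibition. Of about 69,000 compounds tested this way, about 370 (0.54%) reached 50% or more in at least one test.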

- Cc1nccn1-c1ccc(=O)n(CCNC(=O)Cc2ccccc2)n1 | 19.19%
- Cc1occc1C(=O)N1CCCC2(CCN(c3ccccc3)C2=O)C1 (stereo not given) | -23.76%
- Cc1cccc2c1nc(CCO)n2-c1ccc(N)nc1 | -24%
- Cn1cc(Br)cc(NC(=O)Cc2cccs2)c1=O | -0.5024%
- CCc1cc(N2CCCNCC2)n2nc(C)c(C)c2n1 | 30.25%
- O=C(CCN1CCNCC1)N1CCC2(CC1)c1ccccc1CC2O (stereo not given) | -0.9654% & -5.964%
- CC(=O)N1CCCC(Cc2cncc(Br)c2)CC1 (stereo not given) | -6.156%
- [H][C@]12CCCCN1CCC[C@H]2CCC(=O)N1CCC(c2nnc[nH]2)CC1 | -40.08%
- O=C(c1cccc2ncccc12)N1CCCC(n2ccnc2)C1 (stereo not given) | 8.166%
- Cc1ccc(C(=O)N2CC[C@@]3(C[C@@H](NS(C)(=O)=O)CCO3)C2)s1 | -7.37% & -2.131%
- Cc1csc(CNCC(C)c2nc3ccccc3o2)n1 (stereo not given) | 13.5%
- Cc1ccc2c(c1)[C@@H](CC(=O)N1CCN(C)CC1)CCO2 | 3.216%
- Fc1ccc(C2(NCc3ccccc3)CCOCC2)cc1 | -1.278%
- Cc1cc(C2CCCN2Cc2ccc(C(=O)Nc3nccs3)cc2)on1 (stereo not given) | -4.716%
- CN(CC(=O)NCCC#N)C(c1ccccc1)c1ccc(F)cc1 (stereo not given) | -10.42%
- Cc1csc(CNC(=O)N2CCN(Cc3cc(C)on3)CC2)n1 | -4.279%
- CN(c1ccc(C#N)cn1)C1CCCN(Cc2noc(C3CC3)n2)C1 (stereo not given) | -3.769%
- CCn1cc(S(=O)(=O)N2CCC(C)CC2)c(C)n1 | 5.596%
- CC(=O)NCCC(=O)NC(C)c1sc(-c2ccccc2F)nc1C (stereo not given) | -6.585%
- CC(C)C(=O)N1CCCC(Cc2ccccn2)C1 (stereo not given) | -15.92% & -4.913%
- COCCN1CCC(C)(c2cc(O)[nH]n2)CC1 | 5.72%
- CCS(=O)(=O)N1CCCn2nnc(Cn3cccc3)c2C1 | 15.81%
- Cc1ccc2[nH]c(CN(C)c3cc(CN)nc(C)n3)nc2c1 | 4.63%
- Cc1occc1C(=O)N1CCc2ncnc(-c3cnn(C)c3)c2CC1 | 30.87%
- CCCc1cc(=O)[nH]c(-c2cccc(CN3CCN4CCCC4C3)c2)n1 (stereo not given) | -11.98%
- O=C(NCCCn1cccn1)C1(c2ccccc2)CCOCC1 | -18.51%
- CC(=O)N1CC(C(=O)NCCc2ncc(C)s2)C1 | 0.2683% & -7.724%
- [H][C@@]12C[C@H](C(=O)NCc3ccco3)CN(C(=O)c3ccco3)[C@]1([H])CCO2 | -8.351%
- CO[C@H]1CN(C(=O)c2ccc(-c3cc[nH]n3)cc2)CC[C@H]1N | -8.207%
- CCC[C@@H]1CN(C(=O)c2ccccc2-c2ccccc2)C[C@H]1N(C)C | -23.82%
- Cc1nnc(N2CCCC3(CN(Cc4ccc(C)s4)CCO3)C2)o1.O=C(O)C(F)(F)F.O=C(O)C(F)(F)F (stereo not given) | 5.785%
- Cn1cccc1-c1nnc(C2(c3ccc4c(c3)OCO4)CCOCC2)o1 | -3.008%
- Cc1ccc(CN2CCOCC3(CCN(Cc4cccs4)C3)C2)o1.O=C(O)C(F)(F)F.O=C(O)C(F)(F)F (stereo not given) | -8.352%
- CN(C)C(=O)C1CN(Cc2cscn2)CCN(S(C)(=O)=O)C1 (stereo not given) | -2.342%
- Cc1nccn1CCCNc1nccnc1C#N | 8%
- CCNc1ccnc(-c2ccnc3c2ccn3C)n1 | -11.87%
- CC(NC(=O)c1ccc(=O)n(C)c1)c1ccccc1-n1cccn1 (stereo not given) | 13.11%
- C=C(C)COc1ccccc1NC(=O)N1CCOCC1CO (stereo not given) | -23.66%
- O=C(Nc1ccc(-c2csnn2)cc1)N1CCCC1 | -3.241%
- Cc1c2ncn(CC(=O)NC(C)C)c(=O)c2nn1C | -40.42%
- CC(C)NC(=O)N1CCC(c2nccn2C(C)C)CC1 | -12.89% & -3.693%
- CC(C)S(=O)(=O)C(C)C(=O)NCc1cccc(N2CCCCC2=O)c1 (stereo not given) | -20.55%
- C[C@@H]1CN(C(=O)CSc2nncn2C)C[C@@]1(O)C1CC1 | 18.92%
- O=C(O)c1cccnc1CN1CCCC1CCc1ccccc1 (stereo not given) | -5.004%
- O=C(O)C(F)(F)F.[H][C@@]12CN(C(=O)C3CC3)C[C@]1([H])OCCN2CC(=O)NC | -8.128%
- Cc1ccc(F)cc1NC(=O)c1[nH]ncc1Br | 15.25%
- O=C(O)C(F)(F)F.[H][C@]12CCN(S(=O)(=O)N(C)C)CC[C@@]1([H])S(=O)(=O)CCN2CC(C)C | -8.197%
- Cc1c[nH]cc1C(=O)N1CCN(CCc2cccs2)CC1 | 20.39%
- O=C(Nc1ccccc1)N1CCC2(CC(=O)N(c3ccsc3)C2)C1 (stereo not given) | -6.131% & -0.7656%
- CN(CCO)C[C@@H]1CN(C2CCN(c3ccccc3Cl)CC2)C[C@@H]1CO | 16.11%

Some entries from above, unchanged:

Cc1nccn1CCCNc1nccnc1C#N gave 8%.
Cc1nnc(N2CCCC3(CN(Cc4ccc(C)s4)CCO3)C2)o1.O=C(O)C(F)(F)F.O=C(O)C(F)(F)F (stereo not given) gave 5.785%.
[H][C@@]12C[C@H](C(=O)NCc3ccco3)CN(C(=O)c3ccco3)[C@]1([H])CCO2 gave -8.351%.
Cc1c[nH]cc1C(=O)N1CCN(CCc2cccs2)CC1 gave 20.39%.